Data on one substance can be found in patent publication US10898873B2, “Lecithin compositions and methods of making and using such lecithin compositions” (Archer Daniels Midland Company, priority 2015, dated 2021).

The series in a line: Corn oil recovery from syrup with additive (heating, centrifugation). Conditions: 300 ppm additive in 40 g CDS syrup, 85° C. 20 minutes, 4500 rpm 4 minutes.

For the substance “polyoxyethylene (20) sorbitan monooleate [Polysorbate 80]”, the “corn oil separated as a top layer” value is, setting by setting: (FIG. 9) “small oil layer on the top”; (FIG. 10) “small oil layer on the top”.
